# Measured values from US7862811B2, “Protease inhibition for prevention or treatment of heart failure” (Regents of the University of Colorado, priority 2004, dated 2011).
# At least one compound was matched to its structure with a doubt left. Peptide text beside a SMILES is read from it. * marks the point of attachment. Cbz = O=C(OCc1ccccc1)*
# Key:
# [1] = system: rat erythrocyte membrane-associated cytoskeletal proteins; conditions: rat erythrocytes rendered permeable to calcium; read-out: IC50, protection of cytoskeletal proteins from proteolytic degradation; cited from earlier work
# calpain I and II = conditions: cited from earlier work
# calpain = calpain activation after RV pressure overload by Western blotting of spectrin breakdown products; format: in vivo, pig; conditions: versus vehicle treated pigs
smiles,measurement,setting,value
"CC(C)[C@H](NC(=O)OCc1ccccc1)C(=O)N[C@H](C=O)Cc1ccccc1 [MDL-28170, carbobezoxy-valinyl-phenylalaninal] (Cbz-Val-Phe-aldehyde)",IC50,[1],1000 nM
same,Ki,calpain I and II,8 nM
same,calpain activation in RV myocardium (spectrin breakdown products),calpain,less calpain activation
